Values of other authors in patent US11583515B2, “Composition and method for rapidly inducing an endogenous ketosis” (priority 2015, dated 2023).
Some entries share one result that the patent states for a list of compounds.

Conditions: after supplementation

## beta-hydroxybutyrate salts
  duration of elevated blood levels of beta-hydroxybutyrate, acetoacetate, or acetone: 6 to 8 h
